Record: PubChem BioAssay AID1259289 (Sanger Institute, 2017)
Purpose: 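Kinase-wide silencing tested with three anchor drugs to reveal synergistic lethal pairs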 (primary screen). Cell system: human LS513 colorectal cancer cells. Reagent: siRNA pool against human genes. Challenge: anchor drug BYL719 at 1 µM, cetuximab at 5 µg/ml or trametinib at 10 nM, or DMSO vehicle alone; exposure time not given. Measurement: 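Cell survival as a fraction of the non-targeting pool, replicate means; robust z-score for silencing alone under DMSO; synergy score for each of BYL719, cetuximab and trametinib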. Direction: robust z-score, siRNA alone (DMSO): higher = more viable cells; strongly negative means essential. Active means: 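Called essential when silencing alone under DMSO gives a robust z-score below -3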. Calls: active = essential (knock-down alone); inactive = not essential.
Here is a random part of 794 deposited reagents. Of all reagents, 16 (2%) were called active. 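Active marks cell loss from silencing alone; drug synergy shows only in the synergy scores, not the calls.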 Not all columns of the deposit are shown. Reagent sequences are not shown. Not given: the amount of reagent, the time to read-out.

WEE1 → robust z-score, siRNA alone (DMSO): -3.04; activity call: active
RTN4 → robust z-score, siRNA alone (DMSO): 0.561; activity call: inactive
JAK1 → robust z-score, siRNA alone (DMSO): 0.561; activity call: inactive
PRKAB1 → robust z-score, siRNA alone (DMSO): -0.29; activity call: inactive
FRK → robust z-score, siRNA alone (DMSO): 0.561; activity call: inactive
PRKX → robust z-score, siRNA alone (DMSO): 0.561; activity call: inactive
NF1 → robust z-score, siRNA alone (DMSO): 0.561; activity call: inactive
CDKN2C → robust z-score, siRNA alone (DMSO): 0.561; activity call: inactive
EPHB3 → robust z-score, siRNA alone (DMSO): -0.792; activity call: inactive
UHMK1 → robust z-score, siRNA alone (DMSO): 0.561; activity call: inactive
EFNB3 → robust z-score, siRNA alone (DMSO): -1.15; activity call: inactive

Looked up above.
EFNB3, activity call = inactive
JAK1, activity call → inactive

Further entries:
AK1 → robust z-score, siRNA alone (DMSO): 0.525; activity call: inactive
RPS6KC1 → robust z-score, siRNA alone (DMSO): 0.561; activity call: inactive
FES → robust z-score, siRNA alone (DMSO): -1.37; activity call: inactive
MAP2K5 → robust z-score, siRNA alone (DMSO): 0.561; activity call: inactive
POMK → robust z-score, siRNA alone (DMSO): 0.561; activity call: inactive
FGFR1 → robust z-score, siRNA alone (DMSO): 0.561; activity call: inactive
CDK15 → robust z-score, siRNA alone (DMSO): 0.561; activity call: inactive
PKM → robust z-score, siRNA alone (DMSO): 0.561; activity call: inactive
